Laboratory results taken from patent US20210221894A1.
Results are given in words; binding and its absence hold for the method and conditions named. Some binding calls cover weakened binding; strength is not graded here.

Protein sequences, listed by entry. Tags and fused reporters are not part of them. Lines headed by an entry give the natural chain unless they say otherwise; changes in a name come on top.
UniProt Q9NYJ7: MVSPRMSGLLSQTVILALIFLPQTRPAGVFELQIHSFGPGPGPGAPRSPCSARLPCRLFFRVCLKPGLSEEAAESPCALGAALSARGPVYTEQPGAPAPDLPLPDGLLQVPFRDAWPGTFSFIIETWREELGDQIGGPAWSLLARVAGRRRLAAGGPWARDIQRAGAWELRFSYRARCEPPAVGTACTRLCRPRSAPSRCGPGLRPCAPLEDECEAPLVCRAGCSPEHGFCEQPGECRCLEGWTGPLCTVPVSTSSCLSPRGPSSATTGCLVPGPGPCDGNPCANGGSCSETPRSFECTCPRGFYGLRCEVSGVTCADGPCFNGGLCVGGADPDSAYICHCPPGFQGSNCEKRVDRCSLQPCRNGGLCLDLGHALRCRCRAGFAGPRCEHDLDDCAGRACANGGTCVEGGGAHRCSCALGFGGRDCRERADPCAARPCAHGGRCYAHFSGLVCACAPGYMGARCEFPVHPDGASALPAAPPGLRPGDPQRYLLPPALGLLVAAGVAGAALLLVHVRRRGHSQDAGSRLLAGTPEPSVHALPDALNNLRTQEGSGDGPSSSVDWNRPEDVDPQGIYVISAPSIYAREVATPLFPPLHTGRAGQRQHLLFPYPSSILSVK

What was measured:
Test in all cases: SPR, 37 C
[1] = biological target: recombinant His-tagged EGF3-6 domains of human DLL3 (human) (UniProt Q9NYJ7)
[2] = biological target: recombinant His-tagged EGF2-6 domains of human DLL3 (human) (UniProt Q9NYJ7)
[3] = biological target: recombinant His-tagged EGF4-6 domains of human DLL3 (human) (UniProt Q9NYJ7)

Measured: binding

B1: murine anti-DLL3 antibody clone 5E7 (antibody, V domains shown)
VH: EVQLQQSGAELVRPGASVKLSCTASGFNIKDDYIHWVKQWPEQGLEWIGWIDSENGDTEYASKFQGKATMTADTSSNTAYLQLSGLTSEDTAVYYCTTSSYYSYDLFVYWGQGTLVTVSA
VL: DVLMTQTPLTLSVPIGQPASISCKSSQSLLHSNGKTYLNWLLQRPGQSPKLLIYLVSKLESGVPDRFSGSGSGTDFTLKISRVEAEDLGVYYCLQTTHLYTFGGGTKLEIK
binds: all assays above
